Laboratory results published in publication PMC10154236.
These are yes or no findings as the source states them, for the method shown. Binding seen in cells or lysates may run through a third protein. Some binding calls cover weakened binding; strength is not graded here. Tags and fused reporters may be left off the sequences shown.

T1: RBM-39::mKate2 (C. elegans) (UniProt Q9N368)
T1 sequence: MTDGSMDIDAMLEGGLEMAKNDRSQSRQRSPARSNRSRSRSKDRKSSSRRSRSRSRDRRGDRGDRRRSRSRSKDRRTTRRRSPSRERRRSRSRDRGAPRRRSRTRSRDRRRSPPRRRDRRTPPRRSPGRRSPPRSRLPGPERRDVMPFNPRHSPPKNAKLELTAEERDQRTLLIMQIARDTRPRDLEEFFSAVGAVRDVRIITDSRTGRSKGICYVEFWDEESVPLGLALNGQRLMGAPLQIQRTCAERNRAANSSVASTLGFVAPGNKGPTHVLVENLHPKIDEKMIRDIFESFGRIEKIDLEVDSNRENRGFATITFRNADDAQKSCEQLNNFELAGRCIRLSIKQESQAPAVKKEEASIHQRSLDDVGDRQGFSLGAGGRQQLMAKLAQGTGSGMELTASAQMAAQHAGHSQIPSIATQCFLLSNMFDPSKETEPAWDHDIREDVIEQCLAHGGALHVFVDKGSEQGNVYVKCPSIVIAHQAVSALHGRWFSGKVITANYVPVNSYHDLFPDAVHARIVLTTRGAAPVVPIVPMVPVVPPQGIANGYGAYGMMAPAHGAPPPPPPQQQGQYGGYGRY

T2: HA::RNP-6 (C. elegans) (UniProt Q9N3S4)
T2 sequence: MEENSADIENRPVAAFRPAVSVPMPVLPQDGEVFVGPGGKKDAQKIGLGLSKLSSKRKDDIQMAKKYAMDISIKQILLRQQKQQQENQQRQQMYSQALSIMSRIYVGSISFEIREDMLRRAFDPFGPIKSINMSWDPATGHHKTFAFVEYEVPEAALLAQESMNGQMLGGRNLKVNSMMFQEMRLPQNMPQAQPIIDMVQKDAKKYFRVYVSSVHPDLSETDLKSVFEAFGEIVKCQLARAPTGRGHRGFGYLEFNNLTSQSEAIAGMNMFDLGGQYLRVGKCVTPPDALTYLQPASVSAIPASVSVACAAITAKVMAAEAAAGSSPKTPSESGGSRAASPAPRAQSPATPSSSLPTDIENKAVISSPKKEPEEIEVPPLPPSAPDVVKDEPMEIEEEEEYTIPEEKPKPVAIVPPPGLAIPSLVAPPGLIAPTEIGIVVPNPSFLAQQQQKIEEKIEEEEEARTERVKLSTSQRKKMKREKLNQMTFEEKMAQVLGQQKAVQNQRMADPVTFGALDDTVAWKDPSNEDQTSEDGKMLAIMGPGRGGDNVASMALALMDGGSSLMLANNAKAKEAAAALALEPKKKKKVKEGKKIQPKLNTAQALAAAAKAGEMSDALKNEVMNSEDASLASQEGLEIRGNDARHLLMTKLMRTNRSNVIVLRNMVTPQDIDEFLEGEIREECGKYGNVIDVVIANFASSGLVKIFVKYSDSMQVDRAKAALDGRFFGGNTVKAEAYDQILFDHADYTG


Key:
[1] = molecular target: T1, RBM-39::mKate2 (C. elegans); experiment: co-IP; lysates of worms expressing HA::RNP-6, RBM-39::mKate2 or both; 0.5% NP40, 150 mM NaCl, 50 mM Tris pH 7.4; antibodies against mKate2 and HA used for immunoprecipitation and western blot; n = 1
HA::RNP-6 (C. elegans) = molecular target: T2, HA::RNP-6 (C. elegans); experiment: as above

Row | binding [1] | binding (HA::RNP-6 (C. elegans)) | Binder
1 | binds | – | HA::RNP-6 (protein, UniProt Q9N3S4 1-749) MEENSADIENRPVAAFRPAVSVPMPVLPQDGEVFVGPGGKKDAQKIGLGLSKLSSKRKDDIQMAKKYAMDISIKQILLRQQKQQQENQQRQQMYSQALSIMSRIYVGSISFEIREDMLRRAFDPFGPIKSINMSWDPATGHHKTFAFVEYEVPEAALLAQESMNGQMLGGRNLKVNSMMFQEMRLPQNMPQAQPIIDMVQKDAKKYFRVYVSSVHPDLSETDLKSVFEAFGEIVKCQLARAPTGRGHRGFGYLEFNNLTSQSEAIAGMNMFDLGGQYLRVGKCVTPPDALTYLQPASVSAIPASVSVACAAITAKVMAAEAAAGSSPKTPSESGGSRAASPAPRAQSPATPSSSLPTDIENKAVISSPKKEPEEIEVPPLPPSAPDVVKDEPMEIEEEEEYTIPEEKPKPVAIVPPPGLAIPSLVAPPGLIAPTEIGIVVPNPSFLAQQQQKIEEKIEEEEEARTERVKLSTSQRKKMKREKLNQMTFEEKMAQVLGQQKAVQNQRMADPVTFGALDDTVAWKDPSNEDQTSEDGKMLAIMGPGRGGDNVASMALALMDGGSSLMLANNAKAKEAAAALALEPKKKKKVKEGKKIQPKLNTAQALAAAAKAGEMSDALKNEVMNSEDASLASQEGLEIRGNDARHLLMTKLMRTNRSNVIVLRNMVTPQDIDEFLEGEIREECGKYGNVIDVVIANFASSGLVKIFVKYSDSMQVDRAKAALDGRFFGGNTVKAEAYDQILFDHADYTG
2 | – | binds | RBM-39::mKate2 (protein, UniProt Q9N368 1-580) MTDGSMDIDAMLEGGLEMAKNDRSQSRQRSPARSNRSRSRSKDRKSSSRRSRSRSRDRRGDRGDRRRSRSRSKDRRTTRRRSPSRERRRSRSRDRGAPRRRSRTRSRDRRRSPPRRRDRRTPPRRSPGRRSPPRSRLPGPERRDVMPFNPRHSPPKNAKLELTAEERDQRTLLIMQIARDTRPRDLEEFFSAVGAVRDVRIITDSRTGRSKGICYVEFWDEESVPLGLALNGQRLMGAPLQIQRTCAERNRAANSSVASTLGFVAPGNKGPTHVLVENLHPKIDEKMIRDIFESFGRIEKIDLEVDSNRENRGFATITFRNADDAQKSCEQLNNFELAGRCIRLSIKQESQAPAVKKEEASIHQRSLDDVGDRQGFSLGAGGRQQLMAKLAQGTGSGMELTASAQMAAQHAGHSQIPSIATQCFLLSNMFDPSKETEPAWDHDIREDVIEQCLAHGGALHVFVDKGSEQGNVYVKCPSIVIAHQAVSALHGRWFSGKVITANYVPVNSYHDLFPDAVHARIVLTTRGAAPVVPIVPMVPVVPPQGIANGYGAYGMMAPAHGAPPPPPPQQQGQYGGYGRY
